Assay results from article PMC8113450.
These are yes or no findings as the source states them, for the method shown.

Target: murine Elp2 (mElp2), wild type, purified alone (Mus musculus) (UniProt Q91WG4)
Assay: SEC; gel filtration of purified Elp2 on S200 Increase 10/300 GL; 20 mM HEPES, 300 mM NaCl, 5 mM DTT, pH 8.0; both purified

- binding: no binding
B1: murine Elp2 (mElp2), wild type, purified alone (protein, UniProt Q91WG4 1-831)
chain: MVSSVLEVSHVFCCPNRVRGALSWNTGPGGLLAFGTSCSVVLYDPQKKVVITNLNGHTARVNCLQWIRTEDGSPSNELVSGGSDNRVIHWELENNQVLKSVRLQGHEGPVCAVHAIYQSGPSEGEQHALIASAASDSTVRIWSKKGSEVKYLQTLSFRDGFVLSVCLAILPGTNVPVLACGDDDCRIHLYIQQDDQFQKALSLCGHEDWIRGVEWATFGRDLFLASCSQDCLIRIWRLYMKPASFETKDGSLRLKENTFTIKDGGVRTTVAVTLETVLAGHENWVNAVHWQPSFYKDGVLQQPVRLLSASMDKTMILWAPDEESGVWLEQVRVGEVGGNTLGFYDCQFGENGTMIIAHAFHGALHLWKQSTVNPRQWAPEIVISGHFDGVQDLMWDPEGEFIITTSTDQTTRLFAPWKKKDQKDRSQVTWHEIARPQIHGYNIKCLAMIDRFQFVSGADEKVLRVFSAPRNFVENFSVISRQSLSHMLCDDQDLPEGATVPALGLSNKALFQGDIASQPFEEDELISPAFGSPQVTFQPAVLNEPPTEDHLLQNTLWPEIQKLYGHGYEIVCVACNNSKTLLASACKASQKEHAAIILWSTASWKQVQSLAFHTLTVTQMTFSPDDKFLLAVSRDRTWSLWKRQDATSSEFDPFFSLFAFTNKITSVHSRIIWSCDWSPDNKYFFTGSRDKKVVVWGECKSSHNPMEHPIRPCSSILDVGSSVTAVSVCPVLNPAQRYIVAIGLESGKICIYSWNKTNQEINDWTSCVETNPSQSHSLGIRRLCWKSCSDDDDDDDDDDTEQSEEGPEWLHFASCGEDHTVKIYRVNRRAL
